Experimental data: paper PMC10750215
No constants are given. Whether binding was seen depends on the method and setting. In cells and extracts the contact can be indirect. Some results given as binding are weak or reduced against the parent protein; the word gives no strength.

Protein sequences, listed by entry. Tags and fused reporters are not part of them.
UniProt P25490: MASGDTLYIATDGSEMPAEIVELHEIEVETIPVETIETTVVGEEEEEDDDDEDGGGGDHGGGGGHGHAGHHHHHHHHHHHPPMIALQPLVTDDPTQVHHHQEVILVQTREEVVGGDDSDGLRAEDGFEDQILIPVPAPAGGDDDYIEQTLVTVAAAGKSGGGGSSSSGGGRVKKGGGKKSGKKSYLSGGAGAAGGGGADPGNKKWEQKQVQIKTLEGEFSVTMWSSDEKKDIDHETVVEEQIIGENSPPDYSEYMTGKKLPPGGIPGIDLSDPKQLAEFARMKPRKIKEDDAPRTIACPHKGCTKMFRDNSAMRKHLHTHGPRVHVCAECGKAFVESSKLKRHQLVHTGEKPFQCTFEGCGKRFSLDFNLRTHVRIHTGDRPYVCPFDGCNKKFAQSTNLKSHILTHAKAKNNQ
UniProt Q15672: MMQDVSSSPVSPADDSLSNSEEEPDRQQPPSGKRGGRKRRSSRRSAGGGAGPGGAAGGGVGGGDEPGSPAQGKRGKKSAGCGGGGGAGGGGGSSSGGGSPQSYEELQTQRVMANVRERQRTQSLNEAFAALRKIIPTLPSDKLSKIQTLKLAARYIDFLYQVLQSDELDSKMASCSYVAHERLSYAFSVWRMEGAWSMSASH

Columns and labels:
[1] = molecular target: T1, Vitamin D receptor (VDR), endogenous (human (endogenous in MHCC-97H)) (UniProt P11473); assay: proximity ligation; PLA with VDR and YY1 in MHCC-97H cells, Matrigel 3D culture, different concentrations of VD
T1 sequence: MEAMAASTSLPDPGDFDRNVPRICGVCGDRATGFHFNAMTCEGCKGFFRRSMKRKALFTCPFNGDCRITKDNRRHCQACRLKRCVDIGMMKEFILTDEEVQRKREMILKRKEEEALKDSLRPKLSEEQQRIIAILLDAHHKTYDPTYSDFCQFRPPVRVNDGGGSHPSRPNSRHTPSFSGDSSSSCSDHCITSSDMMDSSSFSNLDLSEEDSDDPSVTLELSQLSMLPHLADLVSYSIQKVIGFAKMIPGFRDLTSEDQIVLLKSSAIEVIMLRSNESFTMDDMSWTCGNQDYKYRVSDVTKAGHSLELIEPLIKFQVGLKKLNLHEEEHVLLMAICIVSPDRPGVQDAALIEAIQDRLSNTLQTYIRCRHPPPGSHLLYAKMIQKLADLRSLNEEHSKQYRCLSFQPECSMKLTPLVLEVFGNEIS

[2] = molecular target: T1, Vitamin D receptor (VDR), endogenous (human (endogenous in MHCC-97H)); assay: co-IP; MHCC-97H cells, treated with VD at rising doses; IP with anti-VDR or with anti-YY1, immunoblot for VDR and YY1
[3] = molecular target: T1, Vitamin D receptor (VDR), endogenous (human (endogenous in MHCC-97H)); assay: proximity ligation; PLA on liver tumour tissue of MHCC-97H-luc-tumor-bearing BALB/c-nude mice, with or without VD3 supplementation
[4] = molecular target: T2, Vitamin D binding protein (VDBP), endogenous (human (endogenous in MHCC-97H)) (UniProt P02774); assay: proximity ligation; PLA with VDBP and Twist1 in Twist1-negative cells (SNU-387) and Twist1-positive cells (SK-HEP-1), Matrigel 3D culture
T2 sequence: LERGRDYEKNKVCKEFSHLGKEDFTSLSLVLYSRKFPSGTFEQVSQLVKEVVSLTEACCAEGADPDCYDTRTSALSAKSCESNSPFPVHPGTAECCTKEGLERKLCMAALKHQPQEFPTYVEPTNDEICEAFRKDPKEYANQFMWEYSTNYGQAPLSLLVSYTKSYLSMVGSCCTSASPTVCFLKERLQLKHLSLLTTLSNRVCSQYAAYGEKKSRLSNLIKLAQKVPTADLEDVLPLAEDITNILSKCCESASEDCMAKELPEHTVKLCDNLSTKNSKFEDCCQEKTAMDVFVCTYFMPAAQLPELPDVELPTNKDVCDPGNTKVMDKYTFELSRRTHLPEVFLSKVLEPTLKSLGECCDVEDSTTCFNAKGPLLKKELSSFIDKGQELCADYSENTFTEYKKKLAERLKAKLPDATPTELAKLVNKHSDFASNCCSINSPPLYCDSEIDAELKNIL

[5] = molecular target: T2, Vitamin D binding protein (VDBP), endogenous (human (endogenous in MHCC-97H)); assay: co-IP; MHCC-97H cells on Matrigel 3D culture; IP with anti-VDBP or with anti-Twist1, immunoblot for Twist1 and VDBP
[6] = molecular target: T2, Vitamin D binding protein (VDBP), endogenous (human (endogenous in MHCC-97H)); assay: proximity ligation; PLA on liver tumour tissue of MHCC-97H-luc-tumor-bearing BALB/c-nude mice, with or without VD3 supplementation

Measured: binding

Yin Yang 1 (YY1) (from UniProt P25490 1-414)
binds: [1] | [2] | [3]

Twist1 (from UniProt Q15672 1-202)
binds: [4] | [5] | [6]
